Results are given in words; binding and its absence hold for the method and conditions named. In cells and extracts the contact can be indirect. Some results given as binding are weak or reduced against the parent protein; the word gives no strength.
Target: T1, Four and a half LIM domains 2 (FHL2) (mouse (endogenous in primary granulosa cells)) (UniProt O70433)
T1 sequence: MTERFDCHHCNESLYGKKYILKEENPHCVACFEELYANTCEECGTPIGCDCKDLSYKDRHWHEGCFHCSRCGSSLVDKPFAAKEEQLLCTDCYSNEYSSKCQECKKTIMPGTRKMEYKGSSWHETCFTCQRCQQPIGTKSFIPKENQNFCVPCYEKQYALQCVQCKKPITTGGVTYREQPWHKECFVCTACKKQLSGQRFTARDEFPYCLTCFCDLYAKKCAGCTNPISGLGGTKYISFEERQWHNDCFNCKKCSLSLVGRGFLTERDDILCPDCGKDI
Test: co-IP; granulosa cell lysates incubated overnight with rabbit anti-FHL2 antibody or normal rabbit IgG; protein A/G agarose beads, 30 min at 4 °C; five washes with cell lysis buffer; western blot with anti-NF-κB and anti-AP-1 antibodies

Chains of the proteins cited; added tags and fusions are not shown.
UniProt P01101: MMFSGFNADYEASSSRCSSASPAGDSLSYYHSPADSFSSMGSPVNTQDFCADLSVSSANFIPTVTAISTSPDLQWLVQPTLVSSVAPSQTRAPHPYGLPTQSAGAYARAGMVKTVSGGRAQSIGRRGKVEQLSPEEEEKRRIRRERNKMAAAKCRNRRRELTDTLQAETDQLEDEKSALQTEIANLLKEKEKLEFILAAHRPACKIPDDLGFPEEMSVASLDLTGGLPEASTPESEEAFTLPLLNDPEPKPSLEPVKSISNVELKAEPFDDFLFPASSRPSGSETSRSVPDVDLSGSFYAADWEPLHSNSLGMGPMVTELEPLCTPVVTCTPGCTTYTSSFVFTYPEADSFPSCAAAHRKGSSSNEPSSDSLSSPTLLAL

binding: binds
Substance: c-fos (AP-1 transcription factor) (from UniProt P01101 1-380)

Source: paper PMC10073124
